Where a name gives a salt, the structure may show the parent alone. Some of the results follow. The calls rarely recur for the same compound in another form.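 Kinases were expressed as nanoluciferase fusions in K562 cells and luminescence was read every 4 h between 2 and 18 h as percent of control, DMSO set to 100% and a positive control to 0%. A time point counts as decreased when the signal drops significantly (2 sigma). The hit call is the authors' own, does not follow from the count of time points alone, and its rule is not shown.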
biological target: IRAK3 (UniProt Q9Y616); assay: number of time points (of 5) at which kinase-Nluc abundance scored as decreased, DMSO-normalised (count); higher = more persistent destabilization; settings: K562; 2-18 h

By UniProt entry, the sequences of proteins in these tests, tags left out. Where a name states a change or a piece, a line headed by the entry shows the natural chain unless it says otherwise.
UniProt Q9Y616: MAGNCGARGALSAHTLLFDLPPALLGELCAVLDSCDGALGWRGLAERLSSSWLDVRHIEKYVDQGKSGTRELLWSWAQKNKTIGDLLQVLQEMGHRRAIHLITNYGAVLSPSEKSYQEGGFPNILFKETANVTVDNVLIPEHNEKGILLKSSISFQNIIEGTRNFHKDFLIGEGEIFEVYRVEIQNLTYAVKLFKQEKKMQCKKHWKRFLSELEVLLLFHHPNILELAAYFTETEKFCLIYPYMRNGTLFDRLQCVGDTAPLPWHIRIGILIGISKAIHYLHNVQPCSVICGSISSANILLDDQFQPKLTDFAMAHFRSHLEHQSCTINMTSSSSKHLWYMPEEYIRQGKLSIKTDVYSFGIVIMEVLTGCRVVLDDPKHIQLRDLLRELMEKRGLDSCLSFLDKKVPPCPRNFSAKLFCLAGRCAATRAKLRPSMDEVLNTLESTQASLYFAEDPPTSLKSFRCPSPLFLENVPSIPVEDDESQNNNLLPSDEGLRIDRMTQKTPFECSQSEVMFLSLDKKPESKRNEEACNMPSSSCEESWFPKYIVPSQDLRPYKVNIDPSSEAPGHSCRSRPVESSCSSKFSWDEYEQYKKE

SMILES	number of time points
COc1ccc2c(c1O)OC(C)(C)c1c-2ccc2c1C(=O)N(c1ccc(C(=O)c3ccccc3)cc1)C2=O [Ampkinone] (10 µM)	0
CC1=C2C(=O)O[C@@H](c3ccoc3)[C@]2(C)CCC1 [Fraxinellone] (10 µM)	0
CS(=O)(=O)c1ccc(-c2cnc(N)c(C(=O)Nc3ccccc3)n2)cc1 (10 µM)	0
O=C(NC(NC(=S)Nc1ccc(F)c([N+](=O)[O-])c1)C(Cl)(Cl)Cl)C(c1ccccc1)c1ccccc1 (stereo unspecified) (10 µM)	0
COc1cc(C(N)=O)nc(-c2cccc(C#C[C@]3(O)CCN(C)C3=O)c2)c1 (10 µM)	0
O=C(Nc1cc(Oc2cc(F)c(NC(=O)C3(C(=O)Nc4ccc(F)cc4)CC3)cc2F)ccn1)C1CC1 [Altiratinib] (10 µM)	0
COc1ccc(Cl)cc1NC(=O)Nc1cc(C)nc2ccccc12 (2.5 µM)	0
COc1ccc(CC(=O)Nc2nc3c(s2)CCc2ccccc2-3)cc1OC (10 µM)	0
N[C@H](Cc1c[nH]c2ccccc12)C(=O)N/N=C/c1ccc2nccnc2c1 [Rhosin (hydrochloride)] (10 µM)	0
CC(C)(C)c1ccc(S(=O)(=O)Nc2ccc(-n3ccnc3)cc2)cc1 (10 µM)	0
Cc1ccc(-c2c(C(=O)CF)n(CCCO)c3ncnc(N)c23)cc1 (10 µM)	0

Look-ups from above.
In number of time points, CC1=C2C(=O)O[C@@H](c3ccoc3)[C@]2(C)CCC1 [Fraxinellone] (10 µM) is entered as 0
In number of time points, COc1ccc(CC(=O)Nc2nc3c(s2)CCc2ccccc2-3)cc1OC (10 µM) is entered as 0

— the supplement of paper PMC12823440, “Inhibitors supercharge kinase turnover through native proteolytic circuits” (Nature, 2025)
